Reference: patent US7951782B2, “Composition effective to prevent or treat adult disease” (Maruha Nichiro Seafoods, Inc, priority 2005, dated 2011)
At least one peptide structure holds a part that was inferred or is arguable (an end, a ring closure or a residue). Residues, ends and D or L forms follow the SMILES beside them. No end group written: not given here.

The chains behind the UniProt entries cited, without tags or fusion partners.
UniProt P80457, whole entry: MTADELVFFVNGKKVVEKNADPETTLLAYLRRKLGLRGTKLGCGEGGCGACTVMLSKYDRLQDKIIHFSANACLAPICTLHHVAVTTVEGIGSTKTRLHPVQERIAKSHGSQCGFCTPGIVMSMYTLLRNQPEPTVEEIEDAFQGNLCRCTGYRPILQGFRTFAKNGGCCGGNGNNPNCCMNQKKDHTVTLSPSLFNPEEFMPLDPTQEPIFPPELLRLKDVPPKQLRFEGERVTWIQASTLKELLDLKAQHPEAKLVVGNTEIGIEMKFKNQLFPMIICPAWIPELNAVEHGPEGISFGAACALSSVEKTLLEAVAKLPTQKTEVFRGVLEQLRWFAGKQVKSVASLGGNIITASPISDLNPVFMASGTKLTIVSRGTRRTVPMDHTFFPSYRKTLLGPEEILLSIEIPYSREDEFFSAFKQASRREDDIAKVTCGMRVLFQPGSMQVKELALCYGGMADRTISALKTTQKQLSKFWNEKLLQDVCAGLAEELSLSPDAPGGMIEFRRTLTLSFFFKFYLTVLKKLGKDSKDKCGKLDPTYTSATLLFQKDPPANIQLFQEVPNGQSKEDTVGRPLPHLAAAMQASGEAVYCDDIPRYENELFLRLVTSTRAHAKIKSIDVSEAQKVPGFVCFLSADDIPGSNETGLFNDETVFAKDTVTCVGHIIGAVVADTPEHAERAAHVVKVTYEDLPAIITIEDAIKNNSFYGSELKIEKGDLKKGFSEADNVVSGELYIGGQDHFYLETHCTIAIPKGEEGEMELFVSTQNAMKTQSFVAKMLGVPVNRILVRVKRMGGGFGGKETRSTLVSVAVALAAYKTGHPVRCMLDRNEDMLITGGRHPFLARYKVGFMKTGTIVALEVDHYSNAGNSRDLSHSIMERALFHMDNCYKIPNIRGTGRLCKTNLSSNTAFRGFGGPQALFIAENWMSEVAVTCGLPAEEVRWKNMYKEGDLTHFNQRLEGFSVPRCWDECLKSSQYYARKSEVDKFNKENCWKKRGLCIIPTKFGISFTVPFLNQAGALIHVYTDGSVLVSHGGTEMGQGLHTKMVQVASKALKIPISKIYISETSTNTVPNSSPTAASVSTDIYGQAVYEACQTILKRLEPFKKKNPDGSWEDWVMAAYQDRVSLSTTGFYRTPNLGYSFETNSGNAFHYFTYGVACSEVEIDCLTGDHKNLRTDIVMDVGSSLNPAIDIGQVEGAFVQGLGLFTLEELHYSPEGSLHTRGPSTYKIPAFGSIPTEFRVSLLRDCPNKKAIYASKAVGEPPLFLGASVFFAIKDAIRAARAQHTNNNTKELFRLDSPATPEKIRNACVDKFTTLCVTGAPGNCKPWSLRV

Tests used:
[1] = system: rats given potassium oxonate as a hyperuricemia inducing agent; assay: Serum uric acid level lowering activity of synthetic polypeptides given to the tail vein, intraperitoneal potassium oxonate; format: in vivo, rat; details: 5 mg/kg B.W., immediately before potassium oxonate 250 mg/kg i.p., blood 1 h later
[2] = molecular target: T1, xanthine oxidase (XO) of cow's milk (Bos taurus, UniProt P80457); assay: Uric acid synthetase inhibitory activity of serum of rat administered with polypeptide; format: biochemical; details: serum taken 1 h after 5 mg/kg B.W. to the tail vein; 15 μM xanthine, pH 7.4, 37° C., 11 minutes
T1 construct: xanthine oxidase (XO) of cow's milk (from Wako Pure Chemical); purchased Wako Pure Chemical; host or cells: cow's milk (natural source)

[3] = molecular target: T2, xanthine oxidase (XO) from butter milk (Bos taurus, UniProt P80457); assay: Uric acid synthetase inhibitory activity of polypeptides (YINY, YNL, GYL, INF); format: biochemical; details: 15 μM xanthine, pH 7.4, 37° C., 10 minutes
T2 construct: xanthine oxidase (XO) from butter milk (from Wako Pure Chemical); purchased Wako Pure Chemical; host or cells: butter milk (natural source)
Experimental: A polypeptide having SEQ ID No. 2 (YINY), which is contained in the enzyme-digested reverse-phase column fraction of the basic fraction of a shark cartilage extract, was synthesized in the same manner as in Example 7 and added to 200 μl of a 50 mM tris-HCl buffer (pH 7.4) containing 15 μM xanthine as an enzyme substrate to prepare a reaction system. To the reaction system was added 0.1 unit (containing 1 μl of 10 units/100 μl enzyme solution) of xanthine oxidase (XO) from butter milk (from Wako Pure Chemical), followed by allowing the system to react at 37° C. for 10 minutes. The amount of uric acid produced from xanthine by the action of xanthine oxidase was evaluated in terms of changes in optical density (OD, at 292 nm), from which the enzyme activity was calculated from formula previously given.
Polypeptides YNL, GYL, and INF which are contained in the enzyme-digested reverse-phase column fraction of the basic fraction of a shark cartilage extract were synthesized in the same manner as in Example 7 and added to 200 μl of a 50 mM tris-HCl buffer (pH 7.4) containing 15 μM xanthine as an enzyme substrate to prepare a reaction system. […] The amount of uric acid produced from xanthine by the action of xanthine oxidase was evaluated in terms of changes in optical density (OD, at 292 nm), from which the enzyme activity was calculated from formula previously given. […]

| Compound | xanthine oxidase activity in system containing the polypeptide [3] | also measured |
| --- | --- | --- |
| SPPYWPY [SPPYWPY, Ser-Pro-Pro-Tyr-Trp-Pro-Tyr] |  | serum uric acid level [1]: serum uric acid lowering activity was observed |
| YLDNY [YLDNY, Tyr-Leu-Asp-Asn-Tyr] |  | xanthine oxidase activity in system containing serum of administered rat [2]: xanthine oxidase activity was inhibited |
| CC[C@H](C)[C@H](N)C(=O)N[C@@H](CC(N)=O)C(=O)N[C@@H](Cc1ccccc1)C(=O)O [INF, Ile-Asn-Phe] (H-Ile-Asn-Phe-OH; N-terminus and C-terminus assumed) | inhibited |  |
| CC(C)C[C@H](NC(=O)[C@H](Cc1ccc(O)cc1)NC(=O)CN)C(=O)O [GYL, Gly-Tyr-Leu] (H-Gly-Tyr-Leu-OH; N-terminus and C-terminus assumed) | inhibited |  |
